# Assay results from article PMC3394733.
# These are yes or no findings as the source states them, for the method shown. Sequences can lack the tags named with a protein.
# T1: GST-Pef1p (S. cerevisiae) (UniProt P53238)
# T1 sequence: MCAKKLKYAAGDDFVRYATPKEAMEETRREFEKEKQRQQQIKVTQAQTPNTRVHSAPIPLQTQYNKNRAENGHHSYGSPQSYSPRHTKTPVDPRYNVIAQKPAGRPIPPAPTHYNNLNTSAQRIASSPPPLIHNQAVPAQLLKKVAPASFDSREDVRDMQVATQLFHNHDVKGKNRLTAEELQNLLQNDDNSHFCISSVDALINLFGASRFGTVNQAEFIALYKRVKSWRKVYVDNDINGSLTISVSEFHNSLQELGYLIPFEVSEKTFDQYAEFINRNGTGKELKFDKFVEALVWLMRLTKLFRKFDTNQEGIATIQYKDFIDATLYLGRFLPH
# B1: MBP-Sec31(1–490) (domain or fragment, UniProt P38968 1-490)
# chain: MVKLAEFSRTATFAWSHDKIPLLVSGTVSGTVDANFSTDSSLELWSLLAADSEKPIASLQVDSKFNDLDWSHNNKIIAGALDNGSLELYSTNEANNAINSMARFSNHSSSVKTVKFNAKQDNVLASGGNNGEIFIWDMNKCTESPSNYTPLTPGQSMSSVDEVISLAWNQSLAHVFASAGSSNFASIWDLKAKKEVIHLSYTSPNSGIKQQLSVVEWHPKNSTRVATATGSDNDPSILIWDLRNANTPLQTLNQGHQKGILSLDWCHQDEHLLLSSGRDNTVLLWNPESAEQLSQFPARGNWCFKTKFAPEAPDLFACASFDNKIEVQTLQNLTNTLDEQETETKQQESETDFWNNVSREESKEKPTVFHLQAPTWYGEPSPAAHWAFGGKLVQITPDGKGVSITNPKISGLESNTTLSEALKTKDFKPLINQRLVKVIDDVNEEDWNLLEKLSMDGTEEFLKEALAFDNDESDAQDDANNEKEDDGEEF
# B2: MBP-Sec31(1–769) (domain or fragment, UniProt P38968 1-769)
# chain: MVKLAEFSRTATFAWSHDKIPLLVSGTVSGTVDANFSTDSSLELWSLLAADSEKPIASLQVDSKFNDLDWSHNNKIIAGALDNGSLELYSTNEANNAINSMARFSNHSSSVKTVKFNAKQDNVLASGGNNGEIFIWDMNKCTESPSNYTPLTPGQSMSSVDEVISLAWNQSLAHVFASAGSSNFASIWDLKAKKEVIHLSYTSPNSGIKQQLSVVEWHPKNSTRVATATGSDNDPSILIWDLRNANTPLQTLNQGHQKGILSLDWCHQDEHLLLSSGRDNTVLLWNPESAEQLSQFPARGNWCFKTKFAPEAPDLFACASFDNKIEVQTLQNLTNTLDEQETETKQQESETDFWNNVSREESKEKPTVFHLQAPTWYGEPSPAAHWAFGGKLVQITPDGKGVSITNPKISGLESNTTLSEALKTKDFKPLINQRLVKVIDDVNEEDWNLLEKLSMDGTEEFLKEALAFDNDESDAQDDANNEKEDDGEEFFQQIETNFQPEGDFSLSGNIEQTISKNLVSGNIKSAVKNSLENDLLMEAMVIALDSNNERLKESVKNAYFAKYGSKSSLSRILYSISKREVDDLVENLDVSQWKFISKAIQNLYPNDIAQRNEMLIKLGDRLKENGHRQDSLTLYLAAGSLDKVASIWLSEFPDLEDKLKKDNKTIYEAHSECLTEFIERFTVFSNFINGSSTINNEQLIAKFLEFINLTTSTGNFELATEFLNSLPSDNEEVKTEKARVLIASGKSLPAQNPATATTSKAKYTNAKTN
# Biological target: T1, GST-Pef1p (S. cerevisiae)
# Experiment: pull-down; GST-Pef1p or GST (40 nM) and MBP-Sec31p fragment (80 nM), glutathione-Sepharose beads, 4°C 2 h, 20 mM HEPES-KOH pH 8.0, 160 mM potassium acetate, 0.1% Triton X-100; CaCl2 or EGTA not told for this experiment; immunoblot with anti-MBP; both purified
row,Binder,binding
1,B1,"no binding (tested: 80 nM fragment, 40 nM GST-Pef1p)"
2,B2,"no binding (tested: 80 nM fragment, 40 nM GST-Pef1p)"
